No constants are given. Whether binding was seen depends on the method and setting. In cells and extracts the contact can be indirect.
Biological target: CCN2/Connective Tissue Growth Factor, HA-tagged (CCN2-HA) (UniProt P29268)
Test: co-IP; lysates of M-CCN2 cells (MOVAS with lentiviral CCN-HA), non-crosslinked or DSP-crosslinked, Triton X-soluble and -insoluble fractions; immunoprecipitated with anti-HA antibody; blots probed with anti-CCN2 and anti-PDGFB

The chains behind the UniProt entries cited, without tags or fusion partners. Where a name states a change or a piece, a line headed by the entry shows the natural chain unless it says otherwise. Residues count along the entry.
UniProt P29268, residues 26-348: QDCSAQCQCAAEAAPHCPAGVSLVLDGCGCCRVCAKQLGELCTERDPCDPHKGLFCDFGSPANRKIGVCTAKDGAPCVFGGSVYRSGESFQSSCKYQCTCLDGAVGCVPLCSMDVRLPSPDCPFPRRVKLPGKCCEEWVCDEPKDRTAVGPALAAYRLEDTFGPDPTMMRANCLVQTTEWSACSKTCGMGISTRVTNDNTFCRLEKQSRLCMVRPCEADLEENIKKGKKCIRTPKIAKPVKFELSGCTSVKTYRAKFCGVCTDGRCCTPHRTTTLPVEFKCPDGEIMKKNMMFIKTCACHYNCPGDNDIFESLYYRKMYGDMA
UniProt P31240: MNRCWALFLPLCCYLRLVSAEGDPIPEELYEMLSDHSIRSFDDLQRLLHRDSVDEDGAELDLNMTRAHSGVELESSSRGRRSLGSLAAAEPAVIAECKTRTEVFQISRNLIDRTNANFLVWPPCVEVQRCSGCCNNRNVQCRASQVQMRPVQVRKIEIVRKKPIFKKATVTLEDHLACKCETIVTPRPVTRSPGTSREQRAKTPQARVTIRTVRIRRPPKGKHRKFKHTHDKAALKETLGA

platelet-derived growth factor-B (PDGF-B) (from UniProt P31240) (ligand)
binding: no binding
